Results on 56 molecules are retold here after patent publication US20090036365A1.

By UniProt entry, the sequences of proteins in these tests, tags left out. Residues count along the entry.
UniProt P00747, residues 97-810: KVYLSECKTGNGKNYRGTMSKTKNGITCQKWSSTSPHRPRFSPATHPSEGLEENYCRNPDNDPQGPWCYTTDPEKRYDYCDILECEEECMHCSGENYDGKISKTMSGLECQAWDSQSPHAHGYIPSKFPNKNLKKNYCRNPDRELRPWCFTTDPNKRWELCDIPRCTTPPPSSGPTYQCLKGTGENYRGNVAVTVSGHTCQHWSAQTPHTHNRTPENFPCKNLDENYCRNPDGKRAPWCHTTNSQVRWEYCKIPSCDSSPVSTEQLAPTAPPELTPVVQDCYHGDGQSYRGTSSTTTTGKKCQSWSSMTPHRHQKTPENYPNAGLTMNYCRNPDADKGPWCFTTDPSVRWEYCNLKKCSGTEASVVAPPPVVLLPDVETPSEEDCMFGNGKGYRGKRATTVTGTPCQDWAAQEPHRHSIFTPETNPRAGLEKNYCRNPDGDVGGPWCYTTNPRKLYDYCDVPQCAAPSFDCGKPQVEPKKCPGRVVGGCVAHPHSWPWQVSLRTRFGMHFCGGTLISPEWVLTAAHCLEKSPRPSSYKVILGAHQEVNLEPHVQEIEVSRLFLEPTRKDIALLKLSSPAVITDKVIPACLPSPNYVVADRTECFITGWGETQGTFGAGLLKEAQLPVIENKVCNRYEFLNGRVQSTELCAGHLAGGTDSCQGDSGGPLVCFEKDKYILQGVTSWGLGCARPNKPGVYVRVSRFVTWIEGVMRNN

Residue numbers refer to the chain shown, from its start. No constants are given. Whether binding was seen depends on the method and setting. Some results given as binding are weak or reduced against the parent protein; the word gives no strength.

For assay [1], the target named is human plasmin (human) (UniProt P00747). The experiment in a line: phage display selection of the second library on plasmin, selected clone sequenced.
Assay [2] shares this target. The experiment in a line: separate phage display screening against plasmin, selected clone sequenced.
The target is the same in assay [3]. Put plainly: phage display selection on plasmin-agarose beads, selected clone sequenced.

B1: SPI35 (designed binder)
chain: MHSFCAFKADSGACRGRFERWFFNIFTRQCEEFIYGGCEGNQNRFESLEECKKMCTRD
Regarding B1, the binding entry in the assay with human plasmin (human) [1] is on record as “binds”.

B2: SPI14 (designed binder)
chain: B1 chain with G16A, R17K, E19R
For B2, the binding result in the assay with human plasmin (human) [1] is reported as “binds”.

B3: SPI27 (designed binder)
chain: MHSFCAFKAETGPCKGKIARFFFNIFTRQCEEFIYGGCEGNQNRFESLEECKKMCTRD
For B3, the binding entry with human plasmin (human) [1] is listed as “binds”.

B4: SPI32 (designed binder)
chain: B1 chain with S11T, A13P, G16A, R17S, E19G
Consider B4, for which the binding result in the assay with human plasmin (human) [1] is “binds”.

B5: SPI13 (designed binder)
chain: B3 chain with T11G, K15R, G16A, I18F
B5: in the assay with human plasmin (human) [1], the binding result is “binds”.

B6: SPI37 (designed binder)
chain: B1 chain with D10E, S11V, A13P, G16A, R17S, E19H
Regarding B6, the binding result in the assay with human plasmin (human) [1] is “binds”.

B7: SPI28 (designed binder)
chain: B1 chain with A13T, R15K, G16A, E19P, W21F
B7: the binding entry with human plasmin (human) [1] is on record as “binds”.

B8: SPI33 (designed binder)
chain: B1 chain with D10E, S11T, A13S, E19D
Consider B8, for which the binding result with human plasmin (human) [1] is given as “binds”.

B9: SPI34 (designed binder)
chain: B1 chain with D10E, S11V, A13P, G16A, R17S, E19P
As to B9, in the assay with human plasmin (human) [1], the binding entry is “binds”.

B10: SPI06 (designed binder)
chain: B1 chain with S11G, A13P, R15K
Consider B10, for which the binding result in the assay with human plasmin (human) [1] was “binds”.

B11: SPI26 (designed binder)
chain: B3 chain with K15R, G16A, K17T, I18F, A19P
For B11, in the assay with human plasmin (human) [1], the binding result is “binds”.

B12: SPI05 (designed binder)
chain: B3 chain with T11S, K15R, G16A, I18F
Consider B12, for which the binding entry with human plasmin (human) [1] is “binds”.

B13: SPI36 (designed binder)
chain: B1 chain with D10E, S11G, A13P, G16A, E19N, W21F
B13: the binding entry in the assay with human plasmin (human) [1] is “binds”.

B14: ARFK#3 (designed binder)
chain: B1 chain with S11D, A13L, R15K, E19Q, W21F
B14: the binding result with human plasmin (human) [2] is recorded as “binds”.

B15: SPI18 (designed binder)
chain: B3 chain with T11G, K15R, G16A, I18F, A19E
For the molecule B15, the binding result with human plasmin (human) [1] was “binds”.

B16: SPI25 (designed binder)
chain: B1 chain with S11T, A13P, G16A, R17S, E19P, W21L
For B16, in the assay with human plasmin (human) [1], the binding entry is on record as “binds”.

B17: SPI21 (designed binder)
chain: B1 chain with R15K, R17K
For the molecule B17, the binding result with human plasmin (human) [1] is recorded as “binds”.

B18: SPI12 (designed binder)
chain: B1 chain with D10E, S11T, A13P, R17M, E19P
Consider B18, for which the binding entry with human plasmin (human) [1] is given as “binds”.

B19: SPI03 (designed binder)
chain: B1 chain with A13P, R15K, G16A, E19D
B19: the binding entry with human plasmin (human) [1] is on record as “binds”.

B20: SPI38 (designed binder)
chain: B3 chain with K15R, G16A, K17R, A19S
For the molecule B20, in the assay with human plasmin (human) [1], the binding result is reported as “binds”.

B21: SPI24 (designed binder)
chain: B1 chain with S11T, A13P, W21L
Regarding B21, the binding entry with human plasmin (human) [1] was “binds”.

B22: SPI31 (designed binder)
chain: B1 chain with D10E, S11T, A13P, G16A, E19G
For B22, the binding entry with human plasmin (human) [1] was “binds”.

B23: SPI04 (designed binder)
chain: B1 chain with S11G, A13P, G16A, R17S, E19P, W21F
Regarding B23, the binding entry with human plasmin (human) [1] is on record as “binds”.

B24: SPI07 (designed binder)
chain: B1 chain with S11T, A13S, G16A, R17K, F18I
In the case of B24, the binding result with human plasmin (human) [1] was “binds”.

B25: SPI02 (designed binder)
chain: B1 chain with A13P, W21F
For B25, the binding entry with human plasmin (human) [1] is on record as “binds”.

B26: QS1 (designed binder)
chain: MHSFCAFKADDGPCKARFERFFFNIFTRQCEQFTYGGCRGNQNRFESLEECKKMCTRD
Take B26: the binding entry in the assay with human plasmin (human) [3] is recorded as “binds”.

B27: QS8 (designed binder)
chain: B26 chain with T34D, R39A
On to B27, for which the binding entry in the assay with human plasmin (human) [3] is “binds”.

B28: ARFK#12 (designed binder)
chain: B26 chain with R17S, R39N
Consider B28, for which the binding entry in the assay with human plasmin (human) [2] is “binds”.

B29: NS9 (designed binder)
chain: B26 chain with T34I, R39Q
For the molecule B29, the binding entry with human plasmin (human) [3] is reported as “binds”.

B30: ARFK#10 (designed binder)
chain: B26 chain with Q32E, T34S, R39K
Take B30: in the assay with human plasmin (human) [2], the binding result was “binds”.

B31: ARFK#11 (designed binder)
chain: B26 chain with Q32E, T34V, R39K
B31: in the assay with human plasmin (human) [2], the binding result is reported as “binds”.

B32: QS7 (designed binder)
chain: B26 chain with T34H, R39D
Consider B32, for which the binding result in the assay with human plasmin (human) [3] was “binds”.

B33: NS12 (designed binder)
chain: B26 chain with T34I, R39F
Regarding B33, the binding entry with human plasmin (human) [3] is recorded as “binds”.

B34: ARFK#4 (designed binder)
chain: B26 chain with R39M
As to B34, the binding result in the assay with human plasmin (human) [2] is reported as “binds”.

B35: ARFK#1 (display phage) (designed binder)
chain: B26 chain with T34V, R39G
B35: in the assay with human plasmin (human) [2], the binding result is “binds”.

B36: ARFK#13 (designed binder)
chain: B26 chain with R17S, Q32E, R39L
B36: the binding entry in the assay with human plasmin (human) [2] is on record as “binds”.

B37: NS2 (designed binder)
chain: B26 chain with E31Q, T34V, R39G
Take B37: in the assay with human plasmin (human) [3], the binding entry was “binds”.

B38: QS13 (designed binder)
chain: B26 chain with E31Q, T34Y, R39Q
For B38, the binding entry in the assay with human plasmin (human) [3] is “binds”.

B39: ARFK#9 (designed binder)
chain: B26 chain with T34I, R39V
Regarding B39, the binding entry in the assay with human plasmin (human) [2] is listed as “binds”.

B40: QS4 displayed on gIIIp of M13 (designed binder)
chain: B26 chain with T34Y, R39D
Consider B40, for which, in the assay with human plasmin (human) [3], the binding entry is listed as “binds”.

B41: NS4 (designed binder)
chain: B26 chain with R39G
Consider B41, for which the binding entry in the assay with human plasmin (human) [3] is given as “binds”.

B42: ARFK#2 (display phage) (designed binder)
chain: B26 chain with Q32E, T34V, R39G
B42: the binding result in the assay with human plasmin (human) [2] is listed as “binds”.

B43: ARFK#5 (designed binder)
chain: B26 chain with T34S, R39G
As to B43, the binding entry with human plasmin (human) [2] was “binds”.

B44: ARFK#6 (designed binder)
chain: B26 chain with Q32E, T34L, R39L
For the molecule B44, in the assay with human plasmin (human) [2], the binding result is on record as “binds”.

B45: NS11 (designed binder)
chain: B26 chain with T34I, R39G
Regarding B45, the binding entry with human plasmin (human) [3] is “binds”.

B46: NS6 (designed binder)
chain: B26 chain with Q32E, R39G
With B46, in the assay with human plasmin (human) [3], the binding entry is reported as “binds”.

B47: ARFK#15 (designed binder)
chain: B26 chain with R39G
Regarding B47, in the assay with human plasmin (human) [2], the binding result was “binds”.

B48: ARFK#7 (designed binder)
chain: B26 chain with T34S, R39Q
Consider B48, for which the binding entry in the assay with human plasmin (human) [2] is recorded as “binds”.

B49: NS14 (designed binder)
chain: B26 chain with E31Q, T34H, R39E
Regarding B49, the binding result with human plasmin (human) [3] is reported as “binds”.

B50: ARFK#14 (designed binder)
chain: B26 chain with T34F, R39H
As for B50, the binding result in the assay with human plasmin (human) [2] is listed as “binds”.

B51: QS15 (designed binder)
chain: B26 chain with Q32E, T34A, R39G
Consider B51, for which the binding entry with human plasmin (human) [3] was “binds”.

B52: NS15 (designed binder)
chain: B26 chain with T34V, R39A
Regarding B52, the binding entry with human plasmin (human) [3] is recorded as “binds”.

B53: ARFK#8 (designed binder)
chain: B26 chain with T34A, R39A
With B53, in the assay with human plasmin (human) [2], the binding result is given as “binds”.

B54: QS9 (designed binder)
chain: B26 chain with E31Q, Q32E, T34R, R39D
For B54, the binding entry with human plasmin (human) [3] is listed as “binds”.

B55: ARFK#16 (designed binder)
chain: B26 chain with R39M
Regarding B55, in the assay with human plasmin (human) [2], the binding result was “binds”.

B56: NS16 (designed binder)
chain: B26 chain with T34L, R39G
For B56, the binding entry with human plasmin (human) [3] is given as “binds”.
